Results are given in words; binding and its absence hold for the method and conditions named. Some binding calls cover weakened binding; strength is not graded here. For some assays here: Where a sequence is shown, tags or fusion partners need not be part of it.
What was measured:
[1] = molecular target: HA-tagged ΔNLS-TDP-43 (human) (UniProt Q13148); test: immunocytochemistry (confocal co-localization) of HEK293T cells co-transfected with HA-tagged dNLS-TDP43 and the scFv; anti-c-Myc detects the scFv, anti-HA detects dNLS-TDP43, DAPI in the merge
[2] = molecular target: HA-tagged ΔNLS-TDP-43 (human) (UniProt Q13148); test: immunocytochemistry, transfected HEK293FT cells, 10 ug/ml
[3] = molecular target: HA-tagged ΔNLS-TDP-43 (human) (UniProt Q13148); test: immunocytochemistry, transfected HEK293FT cells; binding to ΔNLS TDP-43 cytoplasmic aggregates
[4] = molecular target: T1, DAGWGNL (SEQ ID NO: 1) peptide conjugated to bovine serum albumin (human); test: SPR on peptide-BSA
T1 sequence (peptide, conjugated to BSA): DAGWGNL

[5] = molecular target: HA-tagged ΔNLS-TDP-43 (human) (UniProt Q13148); test: summary table; immunocytochemistry, binding to ΔNLS TDP-43 cytoplasmic aggregates
[6] = molecular target: HA-tagged ΔNLS-TDP-43 (human) (UniProt Q13148); test: co-localization immunocytochemistry (anti-FLAG / anti-HA), co-transfected HEK293 cells
[7] = molecular target: HA-tagged ΔNLS-TDP-43 (human) (UniProt Q13148); test: co-localization immunocytochemistry (anti-MYC / anti-HA), co-transfected HEK293 cells

B1: MYCH20L-2F7 (scFv)
scFv: MDVKLVESGGGLVKLGGSLKLSCAASGFTFSSYYMSWVRQTPEKRLELVATINSNGGSTYYPDTVKGRITISRDNAKNTLQLQMSSLRSEDTALYYCVRQNYEGAYWGQGTLVTVSAGSTGGGGSGKPGSGEGGGGSDVLMTQTPLSLPVTLGDQASISCRSSQSIVHSNGNTYLEWYLQKPGQSPKLLIYKVSNRFSGVPDRFSGSGSGTDFTLKISRVEAEDLGVYYCFQSSHVPWTGGGTKLEIKGSGEQKLISEEDL
With B1 the binding [1] was “binds”.

B2: mouse monoclonal antibody 2F7 (antibody, V domains shown)
VH: DVKLVESGGGLVKLGGSLKLSCAASGFTFSSYYMSWVRQTPEKRLELVATINSNGGSTYYPDTVKGRITISRDNAKNTLQLQMSSLRSEDTALYYCVRQNYEGAYWGQGTLVTVSA
VL: DVLMTQTPLSLPVTLGDQASISCRSSQSIVHSNGNTYLEWYLQKPGQSPKLLIYKVSNRFSGVPDRFSGSGSGTDFTLKISRVEAEDLGVYYCFQSSHVPWTFGGGTKLEIK
With B2 the binding [2] was “binds”, the binding [3] was “binds” and the binding [4] was “binds”. The binding [5] was “binds”.

B3: mouse monoclonal antibody 3E8 (antibody, V domains shown)
VH: DVKLVESGGGLVKLGGSLKLSCAASGFTFSSYYMSWVRQTPEKRLELVATINSNGGSTYYPDTVKGRITISRDNAKNTLQLQMSSLRSEDTALYYCVRQNYEGAYWGQGTLVTVSA
VL: DVLMTQTPLSLPVTLGDQASISCRSSQSIVHSNGNTYLEWYLQKPGQSPKLLIYKVSNRFSGVPDRFSGSGSGTDFTLKISRVEAEDLGVYYCFQSSHVPWTFGGGTKLEIK
B3 was tested, and the binding [3] was “binds”, the binding [4] was “binds” and the binding [5] was “binds”.

B4: rabbit monoclonal antibody 1H3-1K3 (antibody, V domains shown)
VH: QSVEESGGRLVTPGTPLTLTCTVSGFSLSRYYMTWVRQAPGKGLEYIGVIIPGGTTYYASWAKGRFTISKTSTTVDLRITSPTTEDTATYFCAGGPTGNSHFTLWGQGTLVTVS
VL: VMTQTPSSKSVPVGGTVTINCQASESVYNNNHLSWYQQKSGQPPKLLIYEASKLESGVPPRFKGSGSGTQFTLTISDVVCDDAATYYCSGYKRVTTDGIAFGGGTEVVVK
With B4 the binding [4] was “binds”.

B5: rabbit monoclonal antibody 17H3-17K3 (antibody, V domains shown)
VH: QEQLVESGGGLVQPGASLTLTCTASGFSFSSSYVMCWVRQAPGKGLEWITCSDTGINTWYASWAKGRFTISKTSSTTVTLQMTSLTAADTATYFCARRYTGDTYLGNFNLWGQGTLVTVS
VL: AQVLTQTPASVSAAVGGTVTINCQASQSVYKNNYLSWYQQKPGQPPKLLIYKASTLASGVPSRFKGSGSGTQFTLTISDVQCDDAATYYCAGGWRSLNAFGGGTEVVVK
In the case of B5, the binding [4] is reported as “binds”.

B6: rabbit monoclonal antibody 14H1-14K2 (antibody, V domains shown)
VH: QEQLEESGGDLVKPEGSLTLTCTASGFSFSSNYVMCWVRQAPGKGLEWVACIWFAGIVDTTYYATWAKGRFTISKTSSTTVTLQMTSLTAADTATYFCARNPVGSVNLWGQGTLVTVS
VL: VMTQTPSSKSVPVGGSVTINCQASESVYSNNRLSWYQQKPGQPPKLLIYYASTLESGVPSRFKGSGFGTHFTLTISGAQCDDAATYYCAGWRGARTDGVDFGGGTEVVVK
With B6 the binding [3] was “binds”, the binding [4] was “binds” and the binding [5] was “binds”.

B7: mouse monoclonal antibody 3F11 (antibody, V domains shown)
VH: DVKLVESGGDLVKLGGSLKLSCAASGFTFSSYYMSWVRQTPEKRLELVAVINTNGGSTYYPDTVKGRFTISRDNAKNTLYLQMSSLKSEDTALYYCVRQNYEGAYWGQGTLVTVSA
VL: DVLMTQTPLSLPVSLGDQASISCRSSQSIVHSNGNTYLEWYLQKPGQSPKLLIYKVSNRFSGVPDRFSGSGSGTDFTLKISRVEAEDLGVYYCFQSSHVPWTFGGGTKLEIK
With B7 the binding [3] was “binds” and the binding [5] was “binds”.

B8: rabbit monoclonal antibody 38H1-38K1 (antibody, V domains shown)
VH: QSVEESGGRLVTPGTPLTLTCTVSGFSFSAYYMTWVRQAPGKGLEFIGVTIPIGRTYYASWAKGRFTISKTSTTVHLKITSPTTEDTAAYFCAGGPTGNSHFTLWGQGTLVTVS
VL: VMTQTPSSKSVPVGDTVTINCQASESVYNNNQLSWYQQKPGQPPKLLIYQASKLESGVPSRFKGSGSGTQFTLTISDVVCDDAATYYCAGYKSPTTDGIAFGGGTEVVVK
With B8 the binding [3] was “binds” and the binding [5] was “binds”.

B9: LYS-2F7 (scFv)
scFv: MDYKDDDDKDVKLVESGGGLVKLGGSLKLSCAASGFTFSSYYMSWVRQTPEKRLELVATINSNGGSTYYPDTVKGRITISRDNAKNTLQLQMSSLRSEDTALYYCVRQNYEGAYWGQGTLVTVSAGGGGSGGGGSGGGGSDVLMTQTPLSLPVTLGDQASISCRSSQSIVHSNGNTYLEWYLQKPGQSPKLLIYKVSNRFSGVPDRFSGSGSGTDFTLKISRVEAEDLGVYYCFQSSHVPWTFGGGTKLEIKGGGGSKSIRSGYEVM
In the case of B9, the binding [6] is reported as “binds”.

B10: LYS-14H1-14K2 (scFv)
scFv: MDYKDDDDKQEQLEESGGDLVKPEGSLTLTCTASGFSFSSNYVMCWVRQAPGKGLEWVACIWFAGIVDTTYYATWAKGRFTISKTSSTTVTLQMTSLTAADTATYFCARNPVGSVNLWGQGTLVTVSGGGGSGGGGSGGGGSVMTQTPSSKSVPVGGSVTINCQASESVYSNNRLSWYQQKPGQPPKLLIYYASTLESGVPSRFKGSGFGTHFTLTISGAQCDDAATYYCAGWRGARTDGVDFGGGTEVVVKGGGGSKSIRSGYEVM
B10 was tested, and the binding [6] was “binds”.

B11: YPTL-2F7 (scFv)
scFv: MDVKLVESGGGLVKLGGSLKLSCAASGFTFSSYYMSWVRQTPEKRLELVATINSNGGSTYYPDTVKGRITISRDNAKNTLQLQMSSLRSEDTALYYCVRQNYEGAYWGQGTLVTVSAGGGGSGGGGSGGGGSDVLMTQTPLSLPVTLGDQASISCRSSQSIVHSNGNTYLEWYLQKPGQSPKLLIYKVSNRFSGVPDRFSGSGSGTDFTLKISRVEAEDLGVYYCFQSSHVPWTFGGGTKLEIKDYKDDDDKRWRKSHSSSYTPLSGSTYPEGRH
B11 was tested, and the binding [6] was “binds”.

B12: YPTL-14H1-14K2 (scFv)
scFv: MQEQLEESGGDLVKPEGSLTLTCTASGFSFSSNYVMCWVRQAPGKGLEWVACIWFAGIVDTTYYATWAKGRFTISKTSSTTVTLQMTSLTAADTATYFCARNPVGSVNLWGQGTLVTVSSGGGGSGGGGSGGGGSVMTQTPSSKSVPVGGSVTINCQASESVYSNNRLSWYQQKPGQPPKLLIYYASTLESGVPSRFKGSGFGTHFTLTISGAQCDDAATYYCAGWRGARTDGVDFGGGTEVVVKDYKDDDDKRWRKSHSSSYTPLSGSTYPEGRH
With B12 the binding [6] was “binds”.

B13: MYCL15H-2F7 (scFv)
scFv: MDVLMTQTPLSLPVTLGDQASISCRSSQSIVHSNGNTYLEWYLQKPGQSPKLLIYKVSNRFSGVPDRFSGSGSGTDFTLKISRVEAEDLGVYYCFQSSHVPWTGGGTKLEIKGGGGSGGGGSGGGGSDVKLVESGGGLVKLGGSLKLSCAASGFTFSSYYMSWVRQTPEKRLELVATINSNGGSTYYPDTVKGRITISRDNAKNTLQLQMSSLRSEDTALYYCVRQNYEGAYWGQGTLVTVSAGSGEQKLISEEDL
With B13 the binding [7] was “binds”.

B14: MYCH15L-2F7 (scFv)
scFv: MDVKLVESGGGLVKLGGSLKLSCAASGFTFSSYYMSWVRQTPEKRLELVATINSNGGSTYYPDTVKGRITISRDNAKNTLQLQMSSLRSEDTALYYCVRQNYEGAYWGQGTLVTVSAGGGGSGGGGSGGGGSDVLMTQTPLSLPVTLGDQASISCRSSQSIVHSNGNTYLEWYLQKPGQSPKLLIYKVSNRFSGVPDRFSGSGSGTDFTLKISRVEAEDLGVYYCFQSSHVPWTGGGTKLEIKGSGEQKLISEEDL
With B14 the binding [7] was “binds”.

B15: MYCL15H-14H1-14K2 (scFv)
scFv: MAIVMTQTPSSKSVPVGGSVTINCQASESVYSNNRLSWYQQKPGQPPKLLIYYASTLESGVPSRFKGSGFGTHFTLTISGAQCDDAATYYCAGWRGARTDGVDFGGGTEVVVKGGGGSGGGGSGGGGSQEQLEESGGDLVKPEGSLTLTCTASGFSFSSNYVMCWVRQAPGKGLEWVACIWFAGIVDTTYYATWAKGRFTISKTSSTTVTLQMTSLTAADTATYFCARNPVGSVNLWGQGTLVTVSSGSGEQKLISEEDL
B15 was tested, and the binding [7] was “binds”.

B16: MYCL20H-14H1-14K2 (scFv)
scFv: MAIVMTQTPSSKSVPVGGSVTINCQASESVYSNNRLSWYQQKPGQPPKLLIYYASTLESGVPSRFKGSGFGTHFTLTISGAQCDDAATYYCAGWRGARTDGVDFGGGTEVVVKGSTGGGGSGKPGSGEGGGGSQEQLEESGGDLVKPEGSLTLTCTASGFSFSSNYVMCWVRQAPGKGLEWVACIWFAGIVDTTYYATWAKGRFTISKTSSTTVTLQMTSLTAADTATYFCARNPVGSVNLWGQGTLVTVSSGSGEQKLISEEDL
notes: Intrabody: VL-20 aa linker-VH-GSG-MYC tag
In the case of B16, the binding [7] is reported as “binds”.

B17: MYCH20L-14H1-14K2 (scFv)
scFv: MQEQLEESGGDLVKPEGSLTLTCTASGFSFSSNYVMCWVRQAPGKGLEWVACIWFAGIVDTTYYATWAKGRFTISKTSSTTVTLQMTSLTAADTATYFCARNPVGSVNLWGQGTLVTVSSGSTGGGGSGKPGSGEGGGGSAIVMTQTPSSKSVPVGGSVTINCQASESVYSNNRLSWYQQKPGQPPKLLIYYASTLESGVPSRFKGSGFGTHFTLTISGAQCDDAATYYCAGWRGARTDGVDFGGGTEVVVKGSGEQKLISEEDL
With B17 the binding [7] was “binds”.

From US20230174630A1 (UNIVERSITY OF BRITISH COLUMBIA, published 2023)
